{"source": "patent US20260345742A1", "about": "“SYNTHETIC SURFACTANTS FOR INHIBITING CORONAVIRUS INFECTION” (priority 2022, published 2026)", "molecular_target": "SARS-CoV-2 RBD (Severe acute respiratory syndrome coronavirus 2, UniProt P0DTC2)", "test": "SPR binding (Biacore T200) of SARS-CoV-2 RBD to chip-linked biotinylated B-YL", "experimental": "FIG. 3. Surface plasmon resonance (SPR) sensorgrams of rbCovid-19-RBD protein construct and human ACE2 receptor binding to immobilized B-YL peptide. The B-YL peptide was biotinylated to facilitate attachment to the Biacore chip as described in Methodology. Solutions of 1 μM recombinant protein in HBS-EP buffer (10 mM Hepes, pH 7.4, 150 mM NaCl, 3 mM EDTA, 0.005% surfactant P20) were then flowed over the respective chip-linked peptides. The concentration dependent binding of the viral RBD construct (A) and the human ACE-2 receptor (B) to the B-YL lung surfactant peptide are shown with the SPR response indicated in relative response units (RU) on the graph's Y-axis. […]\nThe binding affinity of the B-YL lung surfactant peptide to the coronavirus recombinant spike protein construct of SARS-CoV-2 (viral spike protein amino acid sequence) that included the Receptor Binding Domain (RBD) was measured with SPR spectroscopy using a Biacore T200 system (GE Healthcare Bio-Sciences Corp, Piscataway, NJ 08855).\nB-YL peptide binding to the recombinant SARS-CoV-2 RBD domain dissolved in a series of seven concentrations (1,000, 500, 250, 125, 62.5, 31.25 and 0 nM) in the analyte and was determined from the sensorgrams, in which arbitrary response units (RUS) are recorded as a function of time. […]", "note": "“Also recorded” adds a separate entry of the source. Not every detail of the peptide structures is certain; ends, links or a residue may be inferred. Ends that are not written are not given here.", "data": [{"sequence": "FPIPLPYYWLYRALIKRIQALIPKGGRLLPQLVYRLVLRYS [B-YL]", "values": [{"measurement": "ΔG (binding free energy)", "setting": "RBD(wt) - B-YL, expt. data - SPR (Table 2)", "value": -5.80, "unit": "kcal/mol"}, {"measurement": "binding affinity (in words)", "setting": "SPR, chip-linked B-YL", "value": "high affinity for the B-YL peptide having a high RU and low dissociation constant (KD); also recorded: The viral RBD had a lower affinity with corresponding higher KD values"}]}]}
